# Results from the supplement of paper PMC7666118.
# By UniProt entry, the sequences of proteins in these tests, tags left out. Where a name states a change or a piece, a line headed by the entry shows the natural chain unless it says otherwise.
# UniProt Q9NVM6: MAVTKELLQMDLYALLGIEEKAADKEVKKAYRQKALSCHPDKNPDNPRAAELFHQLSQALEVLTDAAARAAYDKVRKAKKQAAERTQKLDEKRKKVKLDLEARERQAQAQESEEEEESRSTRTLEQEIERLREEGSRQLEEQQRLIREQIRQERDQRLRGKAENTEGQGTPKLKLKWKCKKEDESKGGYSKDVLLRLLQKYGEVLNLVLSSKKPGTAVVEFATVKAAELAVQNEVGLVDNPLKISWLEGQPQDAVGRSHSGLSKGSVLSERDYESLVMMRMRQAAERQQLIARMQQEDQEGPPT
# UniProt Q9UK59: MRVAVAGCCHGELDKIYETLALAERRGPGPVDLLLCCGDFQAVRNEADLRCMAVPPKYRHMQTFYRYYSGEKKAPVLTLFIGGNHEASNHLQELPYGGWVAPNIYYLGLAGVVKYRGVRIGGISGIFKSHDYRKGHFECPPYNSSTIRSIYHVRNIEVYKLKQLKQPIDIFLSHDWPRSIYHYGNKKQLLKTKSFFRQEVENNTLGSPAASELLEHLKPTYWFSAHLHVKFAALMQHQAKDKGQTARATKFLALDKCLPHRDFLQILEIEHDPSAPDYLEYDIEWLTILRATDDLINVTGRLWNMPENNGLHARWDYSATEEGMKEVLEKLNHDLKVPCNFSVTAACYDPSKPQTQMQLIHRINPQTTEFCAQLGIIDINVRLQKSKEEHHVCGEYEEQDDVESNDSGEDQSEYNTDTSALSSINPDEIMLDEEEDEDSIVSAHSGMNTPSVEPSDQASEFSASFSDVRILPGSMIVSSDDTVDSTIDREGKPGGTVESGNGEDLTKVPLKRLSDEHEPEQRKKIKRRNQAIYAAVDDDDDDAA
# UniProt Q9UPY3: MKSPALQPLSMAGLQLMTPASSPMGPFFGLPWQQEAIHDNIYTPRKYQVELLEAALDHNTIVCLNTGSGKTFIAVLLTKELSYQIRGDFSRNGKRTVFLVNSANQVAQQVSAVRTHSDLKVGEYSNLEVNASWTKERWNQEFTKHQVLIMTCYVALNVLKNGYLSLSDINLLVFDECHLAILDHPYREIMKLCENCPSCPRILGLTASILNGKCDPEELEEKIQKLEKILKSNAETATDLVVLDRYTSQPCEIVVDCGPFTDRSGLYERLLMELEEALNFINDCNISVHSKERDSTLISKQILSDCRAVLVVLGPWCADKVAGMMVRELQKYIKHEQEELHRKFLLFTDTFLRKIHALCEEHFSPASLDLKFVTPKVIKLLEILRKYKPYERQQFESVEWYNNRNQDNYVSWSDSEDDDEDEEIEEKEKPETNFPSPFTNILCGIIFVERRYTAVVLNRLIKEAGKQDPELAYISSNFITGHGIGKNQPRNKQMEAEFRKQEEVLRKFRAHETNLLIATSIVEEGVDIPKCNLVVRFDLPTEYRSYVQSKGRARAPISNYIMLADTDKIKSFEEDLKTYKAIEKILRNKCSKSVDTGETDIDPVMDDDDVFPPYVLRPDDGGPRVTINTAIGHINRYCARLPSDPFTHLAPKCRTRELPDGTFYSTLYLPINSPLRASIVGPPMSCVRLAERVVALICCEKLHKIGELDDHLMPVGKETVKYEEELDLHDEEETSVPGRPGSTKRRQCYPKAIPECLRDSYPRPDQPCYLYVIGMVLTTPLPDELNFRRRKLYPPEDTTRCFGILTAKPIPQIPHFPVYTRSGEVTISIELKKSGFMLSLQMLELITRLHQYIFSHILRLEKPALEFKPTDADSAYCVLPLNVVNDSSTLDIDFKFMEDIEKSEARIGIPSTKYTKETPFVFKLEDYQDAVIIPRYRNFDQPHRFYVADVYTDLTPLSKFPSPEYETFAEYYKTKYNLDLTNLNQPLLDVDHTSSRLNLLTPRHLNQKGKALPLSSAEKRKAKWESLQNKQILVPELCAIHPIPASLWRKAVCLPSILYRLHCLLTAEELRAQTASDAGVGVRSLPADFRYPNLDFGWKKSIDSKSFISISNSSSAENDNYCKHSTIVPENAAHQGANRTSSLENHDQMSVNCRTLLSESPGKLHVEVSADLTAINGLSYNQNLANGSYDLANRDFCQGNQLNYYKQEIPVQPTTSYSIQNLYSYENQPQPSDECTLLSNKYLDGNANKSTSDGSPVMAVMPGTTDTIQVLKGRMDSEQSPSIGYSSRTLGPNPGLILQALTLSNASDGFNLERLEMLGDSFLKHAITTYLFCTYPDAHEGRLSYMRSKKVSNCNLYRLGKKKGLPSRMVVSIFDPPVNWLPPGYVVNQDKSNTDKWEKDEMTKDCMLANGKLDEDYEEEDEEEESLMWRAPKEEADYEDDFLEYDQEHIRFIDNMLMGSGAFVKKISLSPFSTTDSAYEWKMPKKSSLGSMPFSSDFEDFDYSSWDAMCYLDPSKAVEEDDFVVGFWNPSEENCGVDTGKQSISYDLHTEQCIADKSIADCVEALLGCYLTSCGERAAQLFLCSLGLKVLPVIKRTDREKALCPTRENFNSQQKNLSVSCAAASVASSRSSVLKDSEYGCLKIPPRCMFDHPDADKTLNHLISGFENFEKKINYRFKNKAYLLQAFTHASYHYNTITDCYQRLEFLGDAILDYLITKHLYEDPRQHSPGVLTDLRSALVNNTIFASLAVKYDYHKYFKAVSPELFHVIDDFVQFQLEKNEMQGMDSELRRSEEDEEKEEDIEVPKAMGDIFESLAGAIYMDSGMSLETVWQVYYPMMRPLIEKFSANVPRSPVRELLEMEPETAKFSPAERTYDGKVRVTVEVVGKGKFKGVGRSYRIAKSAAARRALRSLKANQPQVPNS
# UniProt O75521: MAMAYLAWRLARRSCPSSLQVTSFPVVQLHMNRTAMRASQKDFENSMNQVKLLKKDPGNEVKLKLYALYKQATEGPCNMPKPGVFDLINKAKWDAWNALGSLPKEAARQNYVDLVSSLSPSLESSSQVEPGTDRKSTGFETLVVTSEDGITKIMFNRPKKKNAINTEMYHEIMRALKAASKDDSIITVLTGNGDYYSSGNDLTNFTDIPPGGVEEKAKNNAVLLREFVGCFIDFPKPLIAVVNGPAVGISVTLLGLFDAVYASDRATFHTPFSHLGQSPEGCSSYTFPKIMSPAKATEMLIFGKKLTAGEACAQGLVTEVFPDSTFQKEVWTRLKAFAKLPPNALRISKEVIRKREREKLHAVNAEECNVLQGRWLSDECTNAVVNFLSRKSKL
# UniProt Q9Y2L1: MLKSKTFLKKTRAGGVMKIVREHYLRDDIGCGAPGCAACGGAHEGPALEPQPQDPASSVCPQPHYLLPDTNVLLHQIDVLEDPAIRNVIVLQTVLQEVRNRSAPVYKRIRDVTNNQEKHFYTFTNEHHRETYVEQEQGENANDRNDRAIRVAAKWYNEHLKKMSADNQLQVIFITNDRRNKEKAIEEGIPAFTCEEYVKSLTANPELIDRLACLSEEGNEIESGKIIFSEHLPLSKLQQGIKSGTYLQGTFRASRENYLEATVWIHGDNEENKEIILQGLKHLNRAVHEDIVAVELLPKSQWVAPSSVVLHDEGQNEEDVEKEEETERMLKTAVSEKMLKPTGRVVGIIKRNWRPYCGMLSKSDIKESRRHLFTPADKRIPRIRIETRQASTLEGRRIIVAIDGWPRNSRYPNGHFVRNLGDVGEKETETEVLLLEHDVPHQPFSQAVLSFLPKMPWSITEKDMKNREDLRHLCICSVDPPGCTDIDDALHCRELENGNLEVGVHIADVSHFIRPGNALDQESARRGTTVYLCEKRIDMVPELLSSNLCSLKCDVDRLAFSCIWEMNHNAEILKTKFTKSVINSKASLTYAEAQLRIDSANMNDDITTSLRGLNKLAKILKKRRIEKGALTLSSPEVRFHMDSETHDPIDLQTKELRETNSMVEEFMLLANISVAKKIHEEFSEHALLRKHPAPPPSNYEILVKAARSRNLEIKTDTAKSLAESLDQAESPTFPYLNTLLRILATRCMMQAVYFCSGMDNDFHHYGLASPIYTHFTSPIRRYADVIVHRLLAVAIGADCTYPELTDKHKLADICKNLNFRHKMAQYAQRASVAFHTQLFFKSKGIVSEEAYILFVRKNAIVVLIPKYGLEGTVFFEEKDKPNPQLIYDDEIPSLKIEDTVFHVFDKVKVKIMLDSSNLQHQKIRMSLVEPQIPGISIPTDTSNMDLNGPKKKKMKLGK
# UniProt Q5QJE6: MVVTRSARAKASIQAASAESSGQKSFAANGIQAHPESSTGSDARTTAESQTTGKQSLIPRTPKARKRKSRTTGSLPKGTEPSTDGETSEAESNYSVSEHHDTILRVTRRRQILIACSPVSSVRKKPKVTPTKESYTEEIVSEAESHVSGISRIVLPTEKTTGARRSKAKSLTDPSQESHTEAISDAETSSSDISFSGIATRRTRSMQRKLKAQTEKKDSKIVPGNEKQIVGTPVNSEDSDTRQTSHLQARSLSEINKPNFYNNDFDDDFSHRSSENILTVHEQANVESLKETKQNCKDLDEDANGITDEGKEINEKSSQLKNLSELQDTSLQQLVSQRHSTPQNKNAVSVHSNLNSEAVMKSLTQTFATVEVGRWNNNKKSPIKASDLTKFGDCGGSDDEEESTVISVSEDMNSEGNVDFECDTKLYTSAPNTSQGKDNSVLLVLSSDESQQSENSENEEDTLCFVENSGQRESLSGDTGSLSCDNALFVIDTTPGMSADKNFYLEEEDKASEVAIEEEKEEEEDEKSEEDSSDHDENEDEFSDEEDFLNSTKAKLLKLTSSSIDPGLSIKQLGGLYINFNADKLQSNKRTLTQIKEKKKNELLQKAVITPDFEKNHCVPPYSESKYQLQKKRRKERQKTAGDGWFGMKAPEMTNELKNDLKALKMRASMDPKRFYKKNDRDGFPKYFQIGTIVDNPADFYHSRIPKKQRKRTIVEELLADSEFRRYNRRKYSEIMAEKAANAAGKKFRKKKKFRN
# UniProt Q96G46: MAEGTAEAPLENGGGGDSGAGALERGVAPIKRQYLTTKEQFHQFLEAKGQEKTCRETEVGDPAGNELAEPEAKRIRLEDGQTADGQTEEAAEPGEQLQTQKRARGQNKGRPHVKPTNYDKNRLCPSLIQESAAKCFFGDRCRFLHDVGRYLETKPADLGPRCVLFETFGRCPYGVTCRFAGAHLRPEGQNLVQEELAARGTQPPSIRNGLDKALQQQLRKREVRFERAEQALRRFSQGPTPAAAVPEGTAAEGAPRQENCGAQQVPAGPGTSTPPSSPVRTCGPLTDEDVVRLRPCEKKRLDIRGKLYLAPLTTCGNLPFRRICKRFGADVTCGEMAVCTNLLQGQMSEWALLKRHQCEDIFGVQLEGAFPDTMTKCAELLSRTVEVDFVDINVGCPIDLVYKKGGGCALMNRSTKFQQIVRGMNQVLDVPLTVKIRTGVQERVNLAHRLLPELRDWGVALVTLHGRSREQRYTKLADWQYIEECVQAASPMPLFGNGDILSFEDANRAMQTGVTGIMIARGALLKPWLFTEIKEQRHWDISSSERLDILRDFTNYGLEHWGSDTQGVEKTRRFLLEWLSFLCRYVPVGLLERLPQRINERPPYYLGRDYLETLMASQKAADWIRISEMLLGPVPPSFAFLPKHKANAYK
# UniProt Q9H467: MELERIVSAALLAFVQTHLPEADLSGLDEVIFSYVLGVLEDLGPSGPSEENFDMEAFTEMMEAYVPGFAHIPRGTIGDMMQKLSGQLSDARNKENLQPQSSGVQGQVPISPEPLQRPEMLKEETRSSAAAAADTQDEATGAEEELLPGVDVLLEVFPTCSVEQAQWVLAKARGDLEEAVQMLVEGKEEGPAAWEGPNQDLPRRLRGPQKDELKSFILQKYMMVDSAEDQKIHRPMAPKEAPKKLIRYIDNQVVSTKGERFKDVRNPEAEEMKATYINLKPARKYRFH
# UniProt P99999: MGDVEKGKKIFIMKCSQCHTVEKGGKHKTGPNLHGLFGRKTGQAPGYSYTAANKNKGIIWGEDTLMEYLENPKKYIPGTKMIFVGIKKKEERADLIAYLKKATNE
# UniProt Q7RTS9: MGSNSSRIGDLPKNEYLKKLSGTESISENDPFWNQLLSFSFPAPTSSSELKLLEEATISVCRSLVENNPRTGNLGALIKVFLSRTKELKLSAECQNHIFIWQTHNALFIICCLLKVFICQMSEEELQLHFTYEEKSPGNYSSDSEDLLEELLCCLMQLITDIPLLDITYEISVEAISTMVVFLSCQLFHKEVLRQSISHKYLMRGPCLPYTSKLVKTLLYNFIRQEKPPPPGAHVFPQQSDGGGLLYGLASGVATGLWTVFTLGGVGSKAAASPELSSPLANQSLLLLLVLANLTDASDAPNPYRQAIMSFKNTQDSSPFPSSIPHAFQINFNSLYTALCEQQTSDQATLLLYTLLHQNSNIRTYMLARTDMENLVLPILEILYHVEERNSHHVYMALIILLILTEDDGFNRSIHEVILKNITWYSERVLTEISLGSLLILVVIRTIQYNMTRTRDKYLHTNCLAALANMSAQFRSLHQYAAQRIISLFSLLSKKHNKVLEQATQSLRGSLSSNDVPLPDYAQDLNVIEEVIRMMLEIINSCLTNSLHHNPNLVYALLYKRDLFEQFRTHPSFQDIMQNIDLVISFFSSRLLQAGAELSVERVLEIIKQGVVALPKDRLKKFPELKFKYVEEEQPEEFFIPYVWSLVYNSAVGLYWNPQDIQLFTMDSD
# The list shows a part of the results.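 How the source made its calls: active = dose-dependent thermal stabilisation significant by F-test of dose-response against flat model at 10% FDR; inactive = not significant.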
# Compound: Nc1nc2c(ncn2[C@@H]2O[C@H](COP(=O)(O)OP(=O)(O)OP(=O)(O)O)[C@@H](O)[C@H]2O)c(=O)[nH]1
# Assay: dose-dependent thermal stabilisation call (2D-TPP, DLPTP, 10% FDR) (binary (1 = stabilised)); higher = stabilised by the compound
# Settings: system: Jurkat gel-filtered lysate; concentration range 1-500 µM
# Experimental: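 2D thermal proteome profiling in gel-filtered Jurkat E6.1 lysate (2 mg/ml) treated with NaGTP (0, 1, 10, 100, 500 uM) for 10 min at room temperature, then heated 3 min at one of 12 temperatures (42-63.9 C). Soluble protein was quantified by TMT10 MS. The value is the DLPTP call of the paper: dose-dependent thermal stabilisation over all temperatures at 10% FDR (F-test of a dose-response against a flat model); one experiment, one call per tested protein.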
row,Target,dose-dependent thermal stabilisation call
1,DDX11 (UniProt Q96FC9),active: 1
2,DLG3 (UniProt Q92796),inactive: 0
3,DNAJC17 (UniProt Q9NVM6),inactive: 0
4,DCUN1D1 (UniProt Q96GG9),inactive: 0
5,DPP8 (UniProt Q6V1X1),active: 1
6,DBR1 (UniProt Q9UK59),active: 1
7,DNAJC9 (UniProt Q8WXX5),inactive: 0
8,DCTN2 (UniProt Q13561),inactive: 0
9,DICER1 (UniProt Q9UPY3),active: 1
10,ECI2 (UniProt O75521),inactive: 0
11,DENND1A (UniProt Q8TEH3),inactive: 0
12,EEA1 (UniProt Q15075),inactive: 0
13,CUTC (UniProt Q9NTM9),inactive: 0
14,EEF2 (UniProt P13639),active: 1
15,CSE1L (UniProt P55060),inactive: 0
16,CUTA (UniProt O60888),inactive: 0
17,DDX59 (UniProt Q5T1V6),inactive: 0
18,DIS3 (UniProt Q9Y2L1),inactive: 0
19,DDTL (UniProt A6NHG4),inactive: 0
20,DOCK7 (UniProt Q96N67),inactive: 0

# Some of the entries above, reformatted.
row	Target	dose-dependent thermal stabilisation call
4	DCUN1D1 (UniProt Q96GG9)	inactive: 0
13	CUTC (UniProt Q9NTM9)	inactive: 0

# Further results follow.

row,Target,dose-dependent thermal stabilisation call
1,DCTN4 (UniProt Q9UJW0),inactive: 0
2,DPYD (UniProt Q12882),inactive: 0
3,DNTTIP2 (UniProt Q5QJE6),inactive: 0
4,DUS4L (UniProt O95620),inactive: 0
5,DTD1 (UniProt Q8TEA8),inactive: 0
6,DUS3L (UniProt Q96G46),inactive: 0
7,DCTPP1 (UniProt Q9H773),inactive: 0
8,DBI (UniProt P07108),inactive: 0
9,DR1 (UniProt Q01658),inactive: 0
10,CUEDC2 (UniProt Q9H467),inactive: 0
11,DERA (UniProt Q9Y315),inactive: 0
12,DKC1 (UniProt O60832),inactive: 0
13,DDHD2 (UniProt O94830),inactive: 0
14,CYCS (UniProt P99999),inactive: 0
15,DLD (UniProt P09622),inactive: 0
16,CYFIP1 (UniProt Q7L576),inactive: 0
17,DIMT1 (UniProt Q9UNQ2),inactive: 0
18,DYNLL1 (UniProt P63167),inactive: 0
19,DYM (UniProt Q7RTS9),active: 1
20,DHX29 (UniProt Q7Z478),inactive: 0
